These are yes or no findings as the source states them, for the method shown. Some binding calls cover weakened binding; strength is not graded here. Each block holds one binder with its values, some of them ahead of it.
Experiments:
[1] = molecular target: T1, Bet v 1 (birch (as 'Birch pollen antigen Bet v 1')) (UniProt P15494); test: summary of the results (radio immuno assay of Example 49)
T1 sequence (125I-labelled (chloramine-T method) where used as tracer, looked up): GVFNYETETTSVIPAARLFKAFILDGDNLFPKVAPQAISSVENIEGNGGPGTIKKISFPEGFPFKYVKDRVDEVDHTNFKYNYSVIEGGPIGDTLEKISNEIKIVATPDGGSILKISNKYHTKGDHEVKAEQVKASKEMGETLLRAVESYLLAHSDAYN

[2] = molecular target: T1, Bet v 1 (birch (as 'Birch pollen antigen Bet v 1')); test: crosslinking radio immuno assay, Bet v 1 Sepharose and 125I-labelled Bet v 1
[3] = molecular target: T1, Bet v 1 (birch (as 'Birch pollen antigen Bet v 1')); test: radio immuno assay, antibody on Protein G Sepharose, 125I-labelled Bet v 1
[4] = molecular target: T1, Bet v 1 (birch (as 'Birch pollen antigen Bet v 1')); test: gel filtration fractions read in radio immuno assay with 125I-labelled Bet v 1 and Protein G Sepharose

binding [1]: binds | binding [2]: binds | binding [3]: binds | binding [4]: binds
B1: Betv1-HG (antibody, V domains shown)
VH: EVQLQQSGAELVKPGASVKLSCTASGFNIKDTYIHWVKQRPEQGLEWVGRIDPATGNTRYDPKFQGKATITADTSSNTAYLQLSSLTSEDTAVYYCASFRPGYALDYWGQGTSVTVSS
VL: DIVMTQSHKFMSTSVGDRVSFTCKASQDVFTAVAWYQQKPGQSPKLLIYWASTRRTGVPDRFTGSGSGTDYTLTISSVQAEDLALYYCQQHFSTPPTFGGGTKLEIK

binding [2]: binds | binding [3]: binds
B2: Betv1-IgG1 (antibody, not shown: a dimerising Fc or GST)
heavy: B1 VH
light: B1 VL

— patent publication US20100325744A1
